Read-outs that look alike come from different tables or passages of the source. No constants are given. Whether binding was seen depends on the method and setting. Binding seen in cells or lysates may run through a third protein. Some binding calls cover weakened binding; strength is not graded here. Where a sequence is shown, tags or fusion partners need not be part of it.
T1: GST-Af1521 (macrodomain protein Af1521 from Archaeoglobus fulgidus) (Archaeoglobus fulgidus) (UniProt O28751)
T1 sequence: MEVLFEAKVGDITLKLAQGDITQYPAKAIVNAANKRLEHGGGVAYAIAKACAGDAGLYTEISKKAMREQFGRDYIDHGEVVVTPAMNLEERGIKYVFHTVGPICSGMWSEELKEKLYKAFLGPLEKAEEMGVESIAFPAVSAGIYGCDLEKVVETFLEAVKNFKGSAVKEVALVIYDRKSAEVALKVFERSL

By UniProt entry, the sequences of proteins in these tests, tags left out.
UniProt P09874: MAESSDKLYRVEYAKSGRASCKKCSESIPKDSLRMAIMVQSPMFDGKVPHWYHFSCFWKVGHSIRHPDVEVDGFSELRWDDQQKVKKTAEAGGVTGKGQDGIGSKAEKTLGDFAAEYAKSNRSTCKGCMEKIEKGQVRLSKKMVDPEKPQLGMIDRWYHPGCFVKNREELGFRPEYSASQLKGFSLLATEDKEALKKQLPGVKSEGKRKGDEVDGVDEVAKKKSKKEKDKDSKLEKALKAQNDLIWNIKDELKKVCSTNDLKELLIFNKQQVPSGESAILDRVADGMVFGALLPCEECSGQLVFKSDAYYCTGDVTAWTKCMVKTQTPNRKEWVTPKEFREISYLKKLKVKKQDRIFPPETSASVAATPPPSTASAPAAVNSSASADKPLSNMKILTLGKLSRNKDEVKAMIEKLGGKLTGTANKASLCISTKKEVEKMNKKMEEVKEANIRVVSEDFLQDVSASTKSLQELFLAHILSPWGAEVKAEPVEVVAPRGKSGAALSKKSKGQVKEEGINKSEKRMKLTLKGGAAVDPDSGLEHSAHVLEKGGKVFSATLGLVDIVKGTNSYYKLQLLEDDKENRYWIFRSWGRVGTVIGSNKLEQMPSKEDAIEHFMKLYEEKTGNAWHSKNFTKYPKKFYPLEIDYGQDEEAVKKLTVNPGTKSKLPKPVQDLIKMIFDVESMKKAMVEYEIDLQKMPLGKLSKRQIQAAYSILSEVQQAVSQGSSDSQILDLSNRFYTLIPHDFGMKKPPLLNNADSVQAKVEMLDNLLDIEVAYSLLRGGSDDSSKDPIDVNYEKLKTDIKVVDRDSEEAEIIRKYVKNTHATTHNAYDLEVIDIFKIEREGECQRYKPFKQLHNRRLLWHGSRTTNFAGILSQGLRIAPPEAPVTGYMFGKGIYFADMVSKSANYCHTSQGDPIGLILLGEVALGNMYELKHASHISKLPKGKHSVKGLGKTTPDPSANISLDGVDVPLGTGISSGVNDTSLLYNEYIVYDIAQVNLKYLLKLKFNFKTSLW

B1: HA-Parp7, automodified in cells (enzyme, UniProt Q7Z3E1 1-657)
chain: MEMETTEPEPDCVVQPPSPPDDFSCQMRLSEKITPLKTCFKKKDQKRLGTGTLRSLRPILNTLLESGSLDGVFRSRNQSTDENSLHEPMMKKAMEINSSCPPAENNMSVLIPDRTNVGDQIPEAHPSTEAPERVVPIQDHSFPSETLSGTVADSTPAHFQTDLLHPVSSDVPTSPDCLDKVIDYVPGIFQENSFTIQYILDTSDKLSTELFQDKSEEASLDLVFELVNQLQYHTHQENGIEICMDFLQGTCIYGRDCLKHHTVLPYHWQIKRTTTQKWQSVFNDSQEHLERFYCNPENDRMRMKYGGQEFWADLNAMNVYETTEFDQLRRLSTPPSSNVNSIYHTVWKFFCRDHFGWREYPESVIRLIEEANSRGLKEVRFMMWNNHYILHNSFFRREIKRRPLFRSCFILLPYLQTLGGVPTQAPPPLEATSSSQIICPDGVTSANFYPETWVYMHPSQDFIQVPVSAEDKSYRIIYNLFHKTVPEFKYRILQILRVQNQFLWEKYKRKKEYMNRKMFGRDRIINERHLFHGTSQDVVDGICKHNFDPRVCGKHATMFGQGSYFAKKASYSHNFSKKSSKGVHFMFLAKVLTGRYTMGSHGMRRPPPVNPGSVTSDLYDSCVDNFFEPQIFVIFNDDQSYPYFVIQYEEVSNTVSI
modifications: auto-ADP-ribosylated in cells (sites not mapped for this sample)

Columns and labels:
[1] = target: T1, GST-Af1521 (macrodomain protein Af1521 from Archaeoglobus fulgidus) (Archaeoglobus fulgidus); assay: pull-down; GST-Af1521 immobilised on glutathione beads (10 μg/10 μl beads), extracts of PC3-AR, PC3-AR-HA-Parp7 or VCaP cells, untreated or treated with R1881 (also other ligands, CHX, Olaparib, shParp7); 4 h, 4 °C; 20 mM Tris-HCl pH 7.5, 50 mM NaCl, 0.5% Triton X-100; immunoblot; only the target purified
[2] = target: T1, GST-Af1521 (macrodomain protein Af1521 from Archaeoglobus fulgidus) (Archaeoglobus fulgidus); assay: as above; remark: listed apart in the source

| Molecule | binding [1] | binding [2] |
| --- | --- | --- |
| Parp1 (from UniProt P09874 1-1014) (enzyme) | binds |  |
| B1 |  | binds |

From publication PMC8113490, “Androgen signaling uses a writer and a reader of ADP-ribosylation to regulate protein complex assembly” (Nature Communications, 2021)
